# Test results as given in paper PMC9164399.
# Results are given in words; binding and its absence hold for the method and conditions named. Binding seen in cells or lysates may run through a third protein. Binding can be weak; no strength is given. Where a sequence is shown, tags or fusion partners need not be part of it.
# Molecular target: T1, HA-Slug (human) (UniProt O43623)
# T1 sequence: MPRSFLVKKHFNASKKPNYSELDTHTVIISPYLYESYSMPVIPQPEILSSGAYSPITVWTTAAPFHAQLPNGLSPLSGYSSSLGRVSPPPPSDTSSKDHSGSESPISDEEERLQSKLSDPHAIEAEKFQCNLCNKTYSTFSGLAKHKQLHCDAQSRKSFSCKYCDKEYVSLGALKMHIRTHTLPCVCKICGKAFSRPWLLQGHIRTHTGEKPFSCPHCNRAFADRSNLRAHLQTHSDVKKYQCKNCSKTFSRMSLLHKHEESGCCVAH
# Test: co-IP; domain mapping: a Flag- or HA-tagged full-length protein co-expressed with Myc-tagged truncations in HEK293T cells; immunoprecipitation with Flag, HA or Myc antibody, western blot
substance,measurement,value
Myc-tagged N-terminal truncation of PRMT5 (human) (domain or fragment),binding,binds
